Experimental data taken from patent publication US9150526B2, “Biaryl-propionic acid derivatives and their use as pharmaceuticals” (SANOFI, priority 2013, dated 2015).

Test system: Recombinant human cathepsin A
Assay: Cathepsin A inhibitory activity (Bodipy FL-bradykinin substrate, microfluidic capillary electrophoresis)
Assay type: biochemical
Conditions: read-out: CATH A IC50
Protocol: Pharmacological Tests a) Cathepsin a Inhibitory Activity
Recombinant human cathepsin A (residues 29-480, with a C-terminal 10-His tag; R&D Systems, #1049-SE) was proteolytically activated with recombinant human cathepsin L (R&D Systems, #952-CY). Briefly, cathepsin A was incubated at 10 μg/ml with cathepsin L at 1 μg/ml in activation buffer (25 mM 2-(morpholin-4-yl)-ethanesulfonic acid (MES), pH 6.0, containing 5 mM dithiothreitol (DTT)) for 15 min at 37° C.
The activated cathepsin A was diluted in assay buffer (25 mM MES, pH 5.5, containing 5 mM DTT) and mixed with the test compound (dissolved in assay buffer containing (v/v) 3% DMSO) or, in the control experiments, with the vehicle in a multiple assay plate. […]
Uncleaved substrate and product were then separated by a microfluidic capillary electrophoresis on a LabChip® 3000 Drug Discovery System (12-Sipper-Chip; Caliper Life Sciences) and quantified by determination of the respective peak areas. Substrate turnover was calculated by dividing product peak area by the sum of substrate and product peak areas, and the enzyme activity and the inhibitory effect of the test compound thus quantified.

## COc1cccc(OC)c1-c1cc(F)cc(C(CC(=O)O)c2ncco2)c1 (stereo not shown) [compound 98]
  IC50: 18 nM
